PubChem BioAssay AID1259308 – NCATS | 2017
Shown is one part, drawn at random, of about 59,000 reagents tested. About 1,510 of all reagents (2.6%) were called active. 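Calls use total luciferase alone and ignore viability, so some active siRNAs may act by altering cell number.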 Not all columns of the deposit are shown.

Aim: 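Knock-downs that increase output of a recombinant reporter protein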 (primary screen)
Cells: human HEK293 embryonic kidney cells stably expressing firefly luciferase (HEK-CMV-Luc2-Hygro)
Reagents: single siRNA against human genes, 0.8 pmol siRNA per well
Duration: 72 h
Read-out: 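Reporter luminescence and viable-cell signal on separate replicate plates, given as percent of non-targeting control and median/MAD z-scores, plus per-cell luciferase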
Scale: total luciferase, z-score: higher = more reporter protein produced
Call rule: 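An siRNA counts as active if its total luciferase robust z-score exceeds 3; genes with two or more such siRNAs out of three were retested with fresh siRNAs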
Calls: active = raised luciferase; inactive = no rise

After knock-down of MTM1 (myotubularin 1) [SID160731251], the screen gave total luciferase, z-score 0.751; inactive. After knock-down of MTM1 (myotubularin 1) [SID160777538] the results were total luciferase, z-score -0.021; inactive. MTM1 (myotubularin 1) [SID160777539] gave total luciferase, z-score 1.01; inactive. For POLA2 (DNA polymerase alpha 2, accessory subunit) [SID160736764], the entry reads total luciferase, z-score -0.435; inactive. Against POLA2 (DNA polymerase alpha 2, accessory subunit) [SID160736765], the values are total luciferase, z-score -1.22; inactive. Depletion of POLA2 (DNA polymerase alpha 2, accessory subunit) [SID160736766] gave: total luciferase, z-score -1.64; inactive.

PTGES3P3 (prostaglandin E synthase 3 pseudogene 3) [SID160767923] gave total luciferase, z-score 0.73; inactive. Against PTGES3P3 (prostaglandin E synthase 3 pseudogene 3) [SID160767924], the values are total luciferase, z-score -0.582; inactive. For PTGES3P3 (prostaglandin E synthase 3 pseudogene 3) [SID160767925], the values are total luciferase, z-score -0.57; inactive. After knock-down of AKNAD1 (AKNA domain containing 1) [SID160762184] the results were total luciferase, z-score 0.54; inactive. Knock-down of AKNAD1 (AKNA domain containing 1) [SID160762185] resulted in: total luciferase, z-score -0.454; inactive. After knock-down of AKNAD1 (AKNA domain containing 1) [SID160762186], the screen gave total luciferase, z-score -0.628; inactive.

Knock-down of SRSF3 (serine and arginine rich splicing factor 3) [SID160716608] resulted in: total luciferase, z-score 0.117; inactive. Knock-down of SRSF3 (serine and arginine rich splicing factor 3) [SID160716609] came out at: total luciferase, z-score 2.99; inactive. For SRSF3 (serine and arginine rich splicing factor 3) [SID160716610], the entry reads total luciferase, z-score 0.531; inactive. Against SLC11A2 [SID160778228], the entry reads total luciferase, z-score -0.5; inactive. With knock-down of SLC11A2 [SID160778229] the results were total luciferase, z-score 0.303; inactive. SLC11A2 [SID160778231] scored total luciferase, z-score -0.214; inactive.

Against OR4B1 (olfactory receptor family 4 subfamily B member 1) [SID160755759], the values are total luciferase, z-score 0.34; inactive. Knock-down of OR4B1 (olfactory receptor family 4 subfamily B member 1) [SID160755760] resulted in: total luciferase, z-score -0.644; inactive. For OR4B1 (olfactory receptor family 4 subfamily B member 1) [SID160755761] the deposit lists total luciferase, z-score 0.116; inactive. After knock-down of SEPTIN10 (septin 10) [SID160759041], the screen gave total luciferase, z-score -0.0251; inactive. SEPTIN10 (septin 10) [SID160759042] showed total luciferase, z-score -0.702; inactive. Knock-down of SEPTIN10 (septin 10) [SID160759043] gave: total luciferase, z-score 3.22; active.

After knock-down of ATP6V0D1 (ATPase H+ transporting V0 subunit d1) [SID160721501], the screen gave total luciferase, z-score 0.378; inactive. Against ATP6V0D1 (ATPase H+ transporting V0 subunit d1) [SID160721502], the entry reads total luciferase, z-score 0.178; inactive. For ATP6V0D1 (ATPase H+ transporting V0 subunit d1) [SID160721503] the deposit lists total luciferase, z-score -0.021; inactive. Against LAMA2 (laminin subunit alpha 2) [SID160776490] the deposit lists total luciferase, z-score -1.46; inactive. LAMA2 (laminin subunit alpha 2) [SID160776491] scored total luciferase, z-score 0.843; inactive. LAMA2 (laminin subunit alpha 2) [SID160776492] scored total luciferase, z-score -1.49; inactive.

Against DMXL2 (Dmx like 2) [SID160735981], the entry reads total luciferase, z-score -0.525; inactive. DMXL2 (Dmx like 2) [SID160735982] showed total luciferase, z-score 1.08; inactive. DMXL2 (Dmx like 2) [SID160735983] scored total luciferase, z-score 0.659; inactive.

Entries above marked active (1):
SEPTIN10 (septin 10) [SID160759043] — total luciferase, z-score: 3.22; activity call: active
